# Source: patent US20140363384A1, “COMBINATION THERAPY FOR COPD” (CHIESI FARMACEUTICI S.p.A., priority 2009, published 2014)
# Test: Titration of acid content (1M HCl) in triple combination formulations, with and without oxygen removal
# Conditions: triple combination with 1M HCl 0.191 to 0.254 μg/μl; 3 months at 25° C./60% RH
# Experimental: In each test pair of samples, one can has its oxygen removed by vacuum crimping in order to investigate the impact of oxygen on the degradation process. After 3 months at 25° C./60% RH, the samples are analyzed for residual can content of active ingredients and major impurities/degradation products.
smiles,measurement,value
"C[N+]1(C)CCC(OC(=O)C(O)(c2ccccc2)C2CCCC2)C1.[Cl-] (stereo not shown) [Gly, 3-[(cyclopentylhydroxyphenyl-acetyl)oxy]-1,1-dimethylpyrrolidinium chloride]","stability of the component (residual can content, degradation)",stable over the 3 month period
